Test results from patent EP4644420A1 (Unicet Biotech. LLC, dated 2025).
No constants are given. Whether binding was seen depends on the method and setting. Some results given as binding are weak or reduced against the parent protein; the word gives no strength.

Biological target: T1, B7-H3 on human tumor cells (human) (UniProt Q5ZPR3)
T1 sequence (looked up): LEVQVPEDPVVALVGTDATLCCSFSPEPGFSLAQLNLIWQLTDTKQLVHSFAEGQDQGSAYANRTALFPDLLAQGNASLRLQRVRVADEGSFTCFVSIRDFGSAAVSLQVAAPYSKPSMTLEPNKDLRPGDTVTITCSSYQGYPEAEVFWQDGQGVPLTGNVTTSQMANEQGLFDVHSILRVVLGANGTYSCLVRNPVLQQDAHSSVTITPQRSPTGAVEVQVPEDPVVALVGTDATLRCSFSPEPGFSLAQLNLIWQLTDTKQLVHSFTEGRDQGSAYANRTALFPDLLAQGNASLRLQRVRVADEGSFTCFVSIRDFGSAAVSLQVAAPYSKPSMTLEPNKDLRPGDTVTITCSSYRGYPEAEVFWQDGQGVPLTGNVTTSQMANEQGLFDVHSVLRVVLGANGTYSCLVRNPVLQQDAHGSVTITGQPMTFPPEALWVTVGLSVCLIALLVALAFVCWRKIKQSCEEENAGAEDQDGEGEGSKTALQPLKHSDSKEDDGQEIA
Experiment: flow cytometry on U87 cells, 1 µg antibody per 1e6 cells; no signal on B7-H3 knockout U87

binding: binds
B1: humanized 2Y31 antibody (antibody, V domains shown)
VH: EVQLVESGGGLVKPGGSLKLSCAASGFAFSRYDMSWVRQSPEKRLEWVATISDDGRHTYDRDSVKGRFTISRDNAKNTLYLQMSSLRSEDTALYYCVRHRAITTARFDYWGQGTTVTVSS
VL: DIVMTQSPSSLSVSLGDTVSITCKASQDIYSNIGWLQQLPGQSFKGLIYHGTNLEDGVPSRFSGSGSGTDYSLTISGLESEDFADYYCLQYVQFPYTFGGGTKLEIKA
